The values that follow come from US20110212162A1 (SANFORD BURNHAM MEDICAL RESEARCH INSTITUTE, published 2011).

By UniProt entry, the sequences of proteins in these tests, tags left out.
UniProt P61073: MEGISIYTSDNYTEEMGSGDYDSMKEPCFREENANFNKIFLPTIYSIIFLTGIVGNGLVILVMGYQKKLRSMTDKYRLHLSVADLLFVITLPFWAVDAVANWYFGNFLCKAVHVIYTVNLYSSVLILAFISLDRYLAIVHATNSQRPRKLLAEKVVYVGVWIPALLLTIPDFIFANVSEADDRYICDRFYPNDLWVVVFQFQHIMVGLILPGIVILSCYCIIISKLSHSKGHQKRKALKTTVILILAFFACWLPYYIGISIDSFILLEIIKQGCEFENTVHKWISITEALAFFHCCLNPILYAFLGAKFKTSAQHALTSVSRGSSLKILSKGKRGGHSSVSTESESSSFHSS

No constants are given. Whether binding was seen depends on the method and setting. Some binding calls cover weakened binding; strength is not graded here.

Test [1] has as its target chemokine receptor CXCR4, expressed on transfected 293T cells (UniProt P61073). Description: competitive phage binding assay on CXCR4-transfected 293T cells; free peptide against LSD phage; binding of the free peptide is inferred from the inhibition.
Test [2] shares this target. Description: phage binding to CXCR4-transfected 293T cells; bound phage rescued and titrated.

With CLSDGKRKC [LSD peptide (…, SEQ ID NO:4), synthetic], the binding result in test [1] is recorded as “binds”.
Consider CLSDGKRKC [LSD phage (T7 phage displaying the peptide …, SEQ ID NO:4)], for which the binding entry in test [2] is reported as “binds”.
